Paper doi:10.1101/2024.05.06.592684
No constants are given. Whether binding was seen depends on the method and setting. Binding seen in cells or lysates may run through a third protein. Sequences can lack the tags named with a protein.

Columns and labels:
[1] = molecular target: T1, PYE fused to the N-terminal part of YFP (nYFP-PYE) (Arabidopsis thaliana) (UniProt Q9SN74); experiment: split reporter
T1 sequence: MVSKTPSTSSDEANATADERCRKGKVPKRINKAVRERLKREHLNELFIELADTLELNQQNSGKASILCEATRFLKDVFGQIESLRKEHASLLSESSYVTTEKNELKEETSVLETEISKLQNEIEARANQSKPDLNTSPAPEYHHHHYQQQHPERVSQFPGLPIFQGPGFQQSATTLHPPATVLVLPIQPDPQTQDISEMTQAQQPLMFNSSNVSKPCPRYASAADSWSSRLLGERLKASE

[2] = molecular target: T2, HY5 fused with C-terminal part of YFP (HY5-cYFP) (Arabidopsis thaliana) (UniProt O24646); experiment: split reporter
T2 sequence: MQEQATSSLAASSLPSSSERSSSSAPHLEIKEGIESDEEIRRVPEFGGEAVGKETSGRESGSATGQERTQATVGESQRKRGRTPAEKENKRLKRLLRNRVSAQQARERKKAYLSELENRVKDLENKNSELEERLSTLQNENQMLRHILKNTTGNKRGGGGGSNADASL

| Substance | binding [1] | binding [2] |
| --- | --- | --- |
| cYFP alone (C-terminal part of YFP) (domain or fragment) | no binding |  |
| nYFP alone (N-terminal part of YFP) (domain or fragment) |  | no binding |
